Results deposited as PubChem BioAssay AID1224830 (NIAID, 2016).
The deposit covers about 18,000 reagents; below is a part drawn at random. Over the whole deposit, about 2,900 (16%) are marked active. 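Calls are made per well; low scores hint the gene aids the LPS response, high scores that it dampens it.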 Entries without a mark were called inactive. Repeated entries: four replicate wells of each siRNA pool.

Purpose: 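Host factors that control LPS-induced TNF expression in human macrophages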 (primary screen)
System: human THP-1 monocytic leukaemia cells, TNF dual-luciferase reporter clone, PMA-differentiated to macrophage-like cells
Reagent: siRNA pool against human genes, 50 nM
Duration: LPS for 4 h, given about 3 days after siRNA transfection
Conditions: bacterial LPS (TLR4 ligand), 10 ng/ml
Measurement: 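TNF firefly reporter luminescence divided by renilla, normalised to the plate median, then turned into a robust z-score for each replicate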
Direction: TNF reporter robust z-score: higher = stronger TNF reporter response to LPS
Call rule: 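Each well counts as active if its z-score is over 2.8 or under -1.5; controls are left without a call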

| target | TNF reporter robust z-score |
| --- | --- |
| ZNF442 (GeneID 79973) | -0.91 |
| ZNF442 (GeneID 79973) | -1.08 |
| ZNF442 (GeneID 79973) | -1.03 |
| ZNF442 (GeneID 79973) | 0.2 |
| MANSC1 (GeneID 54682) | -0.94 |
| MANSC1 (GeneID 54682) | -1.01 |
| MANSC1 (GeneID 54682) | -0.68 |
| MANSC1 (GeneID 54682) | -0.49 |
| ANP32D (GeneID 23519) | 2.19 |
| ANP32D (GeneID 23519) | 1.34 |
| ANP32D (GeneID 23519) | 1.7 |
| ANP32D (GeneID 23519) | 5.15 (active) |
| NECTIN4 (GeneID 81607) | -1.53 (active) |
| NECTIN4 (GeneID 81607) | -1.12 |
| NECTIN4 (GeneID 81607) | -1.55 (active) |
| NECTIN4 (GeneID 81607) | -1.18 |
| GCNT3 (GeneID 9245) | 0.93 |
| GCNT3 (GeneID 9245) | 0.62 |
| GCNT3 (GeneID 9245) | 0.04 |
| GCNT3 (GeneID 9245) | 0.56 |
| MTCL3 (GeneID 387104) | 0.06 |
| MTCL3 (GeneID 387104) | -0.76 |
| MTCL3 (GeneID 387104) | 0.72 |
| MTCL3 (GeneID 387104) | 0.38 |
| GCC2 (GeneID 9648) | 0.34 |
| GCC2 (GeneID 9648) | 1.57 |
| GCC2 (GeneID 9648) | 1.9 |
| GCC2 (GeneID 9648) | -0.1 |
| SLC7A4 (GeneID 6545) | 1.57 |
| SLC7A4 (GeneID 6545) | 1.76 |
| SLC7A4 (GeneID 6545) | 2.28 |
| SLC7A4 (GeneID 6545) | 1.71 |
| ALOX15 (GeneID 246) | -1.47 |
| ALOX15 (GeneID 246) | -1.94 (active) |
| ALOX15 (GeneID 246) | -1.17 |
| ALOX15 (GeneID 246) | -1.07 |
| KIR2DL4 (GeneID 3805) | -0.27 |
| KIR2DL4 (GeneID 3805) | -0.01 |
| KIR2DL4 (GeneID 3805) | -0.71 |
| KIR2DL4 (GeneID 3805) | 0.75 |
| MNAT1 (GeneID 4331) | 0 |
| MNAT1 (GeneID 4331) | 4.07 (active) |
| MNAT1 (GeneID 4331) | -1.61 (active) |
| MNAT1 (GeneID 4331) | 1.41 |
| H2AC17 (GeneID 8336) | -0.54 |
| H2AC17 (GeneID 8336) | 0.08 |
| H2AC17 (GeneID 8336) | 0.17 |
| H2AC17 (GeneID 8336) | 0.38 |
| DPM3 (GeneID 54344) | -0.45 |
| DPM3 (GeneID 54344) | -0.27 |
| DPM3 (GeneID 54344) | -0.57 |
| DPM3 (GeneID 54344) | -0.05 |
| RASGRF1 (GeneID 5923) | 0.91 |
| RASGRF1 (GeneID 5923) | 2.58 |
| RASGRF1 (GeneID 5923) | -0.69 |
| RASGRF1 (GeneID 5923) | -0.12 |
| TMEM255B (GeneID 348013) | 1.07 |
| TMEM255B (GeneID 348013) | 2.15 |
| TMEM255B (GeneID 348013) | 1.45 |
| TMEM255B (GeneID 348013) | 2.06 |
| RNASE10 (GeneID 338879) | 3.47 (active) |
| RNASE10 (GeneID 338879) | 2.82 (active) |
| RNASE10 (GeneID 338879) | 1.68 |
| RNASE10 (GeneID 338879) | 5.86 (active) |
| FCGR1BP (GeneID 2210) | 0.67 |
| FCGR1BP (GeneID 2210) | -0.45 |
| FCGR1BP (GeneID 2210) | 0.26 |
| FCGR1BP (GeneID 2210) | 0.39 |
| AVIL (GeneID 10677) | 0.06 |
| AVIL (GeneID 10677) | 0.65 |
| AVIL (GeneID 10677) | 0.01 |
| AVIL (GeneID 10677) | 0.52 |

Next part (20 carried over from the part before).
| target | TNF reporter robust z-score |
| --- | --- |
| RASGRF1 (GeneID 5923) | 0.91 |
| RASGRF1 (GeneID 5923) | 2.58 |
| RASGRF1 (GeneID 5923) | -0.69 |
| RASGRF1 (GeneID 5923) | -0.12 |
| TMEM255B (GeneID 348013) | 1.07 |
| TMEM255B (GeneID 348013) | 2.15 |
| TMEM255B (GeneID 348013) | 1.45 |
| TMEM255B (GeneID 348013) | 2.06 |
| RNASE10 (GeneID 338879) | 3.47 (active) |
| RNASE10 (GeneID 338879) | 2.82 (active) |
| RNASE10 (GeneID 338879) | 1.68 |
| RNASE10 (GeneID 338879) | 5.86 (active) |
| FCGR1BP (GeneID 2210) | 0.67 |
| FCGR1BP (GeneID 2210) | -0.45 |
| FCGR1BP (GeneID 2210) | 0.26 |
| FCGR1BP (GeneID 2210) | 0.39 |
| AVIL (GeneID 10677) | 0.06 |
| AVIL (GeneID 10677) | 0.65 |
| AVIL (GeneID 10677) | 0.01 |
| AVIL (GeneID 10677) | 0.52 |
| MPEG1 (GeneID 219972) | 0.45 |
| MPEG1 (GeneID 219972) | 0.78 |
| MPEG1 (GeneID 219972) | 0 |
| MPEG1 (GeneID 219972) | 1.24 |
| MRTFB (GeneID 57496) | -0.32 |
| MRTFB (GeneID 57496) | -0.56 |
| MRTFB (GeneID 57496) | -0.49 |
| MRTFB (GeneID 57496) | -0.01 |
| CAAP1 (GeneID 79886) | -0.41 |
| CAAP1 (GeneID 79886) | -0.49 |
| CAAP1 (GeneID 79886) | -0.65 |
| CAAP1 (GeneID 79886) | -0.05 |
| ABTB2 (GeneID 25841) | -0.67 |
| ABTB2 (GeneID 25841) | -0.66 |
| ABTB2 (GeneID 25841) | -0.32 |
| ABTB2 (GeneID 25841) | -0.17 |
| PMS2P3 (GeneID 5387) | 0.47 |
| PMS2P3 (GeneID 5387) | 1 |
| PMS2P3 (GeneID 5387) | -0.28 |
| PMS2P3 (GeneID 5387) | 0.77 |
| CCL13 (GeneID 6357) | -0.93 |
| CCL13 (GeneID 6357) | -0.55 |
| CCL13 (GeneID 6357) | -1.02 |
| CCL13 (GeneID 6357) | -0.76 |
| PUSL1 (GeneID 126789) | 0.17 |
| PUSL1 (GeneID 126789) | 1.03 |
| PUSL1 (GeneID 126789) | 0.11 |
| PUSL1 (GeneID 126789) | 0.81 |
| KCNC3 (GeneID 3748) | -0.07 |
| KCNC3 (GeneID 3748) | 2.27 |
| KCNC3 (GeneID 3748) | 0.03 |
| KCNC3 (GeneID 3748) | 0.74 |
| FAXC (GeneID 84553) | -0.73 |
| FAXC (GeneID 84553) | -0.88 |
| FAXC (GeneID 84553) | -0.54 |
| FAXC (GeneID 84553) | -1.37 |
| PCARE (GeneID 388939) | -0.31 |
| PCARE (GeneID 388939) | -0.33 |
| PCARE (GeneID 388939) | 0.33 |
| PCARE (GeneID 388939) | -0.4 |
| TJP1 (GeneID 7082) | -0.49 |
| TJP1 (GeneID 7082) | -0.11 |
| TJP1 (GeneID 7082) | -0.68 |
| TJP1 (GeneID 7082) | -0.86 |
| COMMD2 (GeneID 51122) | -0.26 |
| COMMD2 (GeneID 51122) | -1.57 (active) |
| COMMD2 (GeneID 51122) | -1.37 |
| COMMD2 (GeneID 51122) | -1.21 |
| LCE3D (GeneID 84648) | -0.29 |
| LCE3D (GeneID 84648) | 0.91 |
| LCE3D (GeneID 84648) | -0.74 |
| LCE3D (GeneID 84648) | -0.04 |
| CACNB4 (GeneID 785) | -1.04 |
| CACNB4 (GeneID 785) | -0.95 |
| CACNB4 (GeneID 785) | -1.36 |
| CACNB4 (GeneID 785) | -0.45 |
| CASKIN1 (GeneID 57524) | -1.95 (active) |
| CASKIN1 (GeneID 57524) | -1.72 (active) |
| CASKIN1 (GeneID 57524) | -1.58 (active) |
| CASKIN1 (GeneID 57524) | -1.37 |
| PHB1 (GeneID 5245) | 0.59 |
| PHB1 (GeneID 5245) | 0.24 |
| PHB1 (GeneID 5245) | 0.03 |
| PHB1 (GeneID 5245) | -0.12 |
| FYTTD1 (GeneID 84248) | -0.77 |
| FYTTD1 (GeneID 84248) | -1.07 |
| FYTTD1 (GeneID 84248) | -1.35 |
| FYTTD1 (GeneID 84248) | -1.13 |
